From paper PMC12827083 come the findings set out here.

Assay [1] has as its target T1, Flag-TRADD (tumor necrosis factor receptor 1-associated death domain protein) (human) (UniProt Q15628).
T1 sequence: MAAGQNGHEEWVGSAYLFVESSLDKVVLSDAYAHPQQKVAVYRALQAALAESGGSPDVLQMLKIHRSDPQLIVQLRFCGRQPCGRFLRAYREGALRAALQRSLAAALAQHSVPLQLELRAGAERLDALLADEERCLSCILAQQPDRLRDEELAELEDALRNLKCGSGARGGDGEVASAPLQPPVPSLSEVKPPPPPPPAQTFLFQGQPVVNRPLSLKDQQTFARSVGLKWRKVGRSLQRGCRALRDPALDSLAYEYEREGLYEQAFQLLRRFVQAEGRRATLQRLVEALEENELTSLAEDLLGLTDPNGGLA
Nature of the assay: co-IP; HEK293T cells transfected with Myc-PELI3 or Flag-TRADD plasmids for 48 hours; lysed in IP Lysis buffer; precipitated with anti-Myc or anti-Flag antibody (2 ug, overnight, 4 °C) and Protein A/G Plus Agarose; immunoblot.

Assay [2] deals with T2, TRADD, endogenous in A549 cells (human (endogenous in A549)) (UniProt Q15628).
T2 sequence: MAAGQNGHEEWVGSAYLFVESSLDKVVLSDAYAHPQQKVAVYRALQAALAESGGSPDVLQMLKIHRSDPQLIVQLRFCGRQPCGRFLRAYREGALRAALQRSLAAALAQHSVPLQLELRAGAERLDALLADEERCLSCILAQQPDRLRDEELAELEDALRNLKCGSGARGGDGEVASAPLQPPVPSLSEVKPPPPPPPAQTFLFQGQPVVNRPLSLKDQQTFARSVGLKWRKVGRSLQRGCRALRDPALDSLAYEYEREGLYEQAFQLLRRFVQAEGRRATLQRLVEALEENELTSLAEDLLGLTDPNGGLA
The assay is described as follows: co-IP; A549 cells lysed; endogenous proteins precipitated with an anti-TRADD or anti-PELI3 antibody; immunoblot.

No constants are given. Whether binding was seen depends on the method and setting. Binding seen in cells or lysates may run through a third protein. Some results given as binding are weak or reduced against the parent protein; the word gives no strength. For some assays here: Tags and fused reporters may be left off the sequences shown.

B1: Myc-PELI3 (Pellino E3 ubiquitin protein ligase family member 3) (enzyme, UniProt Q8N2H9 1-469)
chain: MVLEGNPEVGSPRTSDLQHRGNKGSCVLSSPGEDAQPGEEPIKYGELIVLGCCEEGGEETEAQRGEVTGPRAHSCYNGCLASGDKGRRRSRLALSRRSHANGVKPDVMHHISTPLVSKALSNRGQHSISYTLSRSHSVIVEYTHDSDTDMFQIGRSTENMIDFVVTDTSPGGGAAEGPSAQSTISRYACRILCDRRPPYTARIYAAGFDASSNIFLGERAAKWRTPDGLMDGLTTNGVLVMHPAGGFSEDSAPGVWREISVCGNVYTLRDSRSAQQRGKLVENESNVLQDGSLIDLCGATLLWRTPAGLLRAPTLKQLEAQRQEANAARPQCPVGLSTLAFPSPARGRTAPDKQQPWVYVRCGHVHGYHGWGCRRERGPQERECPLCRLVGPYVPLWLGQEAGLCLDPGPPSHAFAPCGHVCSEKTARYWAQTPLPHGTHAFHAACPFCGAWLTGEHGCVRLIFQGPLD
Turning to B1, in assay [1], the binding result was “binds”.

B2: PELI3, endogenous in A549 cells (enzyme, UniProt Q8N2H9 1-469)
chain: MVLEGNPEVGSPRTSDLQHRGNKGSCVLSSPGEDAQPGEEPIKYGELIVLGCCEEGGEETEAQRGEVTGPRAHSCYNGCLASGDKGRRRSRLALSRRSHANGVKPDVMHHISTPLVSKALSNRGQHSISYTLSRSHSVIVEYTHDSDTDMFQIGRSTENMIDFVVTDTSPGGGAAEGPSAQSTISRYACRILCDRRPPYTARIYAAGFDASSNIFLGERAAKWRTPDGLMDGLTTNGVLVMHPAGGFSEDSAPGVWREISVCGNVYTLRDSRSAQQRGKLVENESNVLQDGSLIDLCGATLLWRTPAGLLRAPTLKQLEAQRQEANAARPQCPVGLSTLAFPSPARGRTAPDKQQPWVYVRCGHVHGYHGWGCRRERGPQERECPLCRLVGPYVPLWLGQEAGLCLDPGPPSHAFAPCGHVCSEKTARYWAQTPLPHGTHAFHAACPFCGAWLTGEHGCVRLIFQGPLD
Consider B2, for which the binding entry in assay [2] is on record as “binds”.
